These are yes or no findings as the source states them, for the method shown. Binding seen in cells or lysates may run through a third protein. Some results given as binding are weak or reduced against the parent protein; the word gives no strength.
Experiments:
[1] = molecular target: Flag-AurkB (Aurora kinase B) (human) (UniProt Q96GD4); test: co-IP
[2] = molecular target: 2N3T-Tip60 (HA-Tip60) (human) (UniProt Q92993); test: co-IP

Protein sequences, listed by entry. Tags and fused reporters are not part of them.
UniProt Q96GD4: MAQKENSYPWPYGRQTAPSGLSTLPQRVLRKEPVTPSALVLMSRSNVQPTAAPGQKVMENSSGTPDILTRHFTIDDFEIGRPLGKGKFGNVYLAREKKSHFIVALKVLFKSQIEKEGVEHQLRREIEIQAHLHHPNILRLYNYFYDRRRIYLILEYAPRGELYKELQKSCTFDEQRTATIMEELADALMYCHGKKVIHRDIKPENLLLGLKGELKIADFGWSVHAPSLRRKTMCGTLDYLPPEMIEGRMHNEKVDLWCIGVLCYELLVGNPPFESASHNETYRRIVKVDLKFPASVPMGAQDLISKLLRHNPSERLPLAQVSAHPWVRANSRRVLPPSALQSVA
UniProt Q92993: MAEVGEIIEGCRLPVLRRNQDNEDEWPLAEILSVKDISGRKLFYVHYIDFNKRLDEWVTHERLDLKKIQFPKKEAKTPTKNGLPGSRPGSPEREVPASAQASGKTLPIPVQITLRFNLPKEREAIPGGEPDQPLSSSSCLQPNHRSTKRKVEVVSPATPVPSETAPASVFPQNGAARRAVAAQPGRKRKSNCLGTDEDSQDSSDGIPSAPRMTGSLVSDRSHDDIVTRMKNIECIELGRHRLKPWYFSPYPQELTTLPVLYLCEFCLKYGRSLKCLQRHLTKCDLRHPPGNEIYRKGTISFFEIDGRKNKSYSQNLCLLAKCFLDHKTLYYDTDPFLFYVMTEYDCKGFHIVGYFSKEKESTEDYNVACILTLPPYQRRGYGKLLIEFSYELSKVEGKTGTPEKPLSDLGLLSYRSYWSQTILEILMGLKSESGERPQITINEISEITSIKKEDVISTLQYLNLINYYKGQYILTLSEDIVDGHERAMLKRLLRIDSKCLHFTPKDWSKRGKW

| Substance | binding [1] | binding [2] |
| --- | --- | --- |
| 2N3T-Tip60 (HA-Tip60) (from UniProt Q92993 1-513) (enzyme) | binds |  |
| Flag-AurkB (Aurora kinase B) (from UniProt Q96GD4 1-344) (enzyme) |  | binds |

From paper doi:10.1101/589473
